From the supplement of paper PMC3334620
Whole data set: some 33,000 sequences, median “E-score (-0.5 to 0.5)” near -0.0014, cut for the highest 2% near 0.25. The list shows a part of the results.

The sequences below were run against T1, Cad1 (UniProt P24813) (assay: PBM E-score (8-mer binding enrichment) (E-score (-0.5 to 0.5)); higher = stronger / more preferred TF binding). Conditions: protein concentration: 100 nM; construct: GST-full length.
T1 sequence: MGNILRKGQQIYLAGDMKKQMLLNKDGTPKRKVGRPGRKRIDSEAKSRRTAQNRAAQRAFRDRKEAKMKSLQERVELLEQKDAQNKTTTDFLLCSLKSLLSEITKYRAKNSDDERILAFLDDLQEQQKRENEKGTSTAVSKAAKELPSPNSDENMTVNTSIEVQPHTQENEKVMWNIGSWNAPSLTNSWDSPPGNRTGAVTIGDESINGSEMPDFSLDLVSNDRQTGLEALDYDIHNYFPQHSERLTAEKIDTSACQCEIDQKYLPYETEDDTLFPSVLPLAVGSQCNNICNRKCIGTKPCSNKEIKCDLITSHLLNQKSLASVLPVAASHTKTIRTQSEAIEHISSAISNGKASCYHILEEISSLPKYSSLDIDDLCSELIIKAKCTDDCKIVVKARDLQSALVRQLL
How it was run: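 Each ungapped eight-base word and its reverse complement, pooled, received an E-score from the Universal PBM Analysis Suite. Underlying scans, normalised with masliner, recorded fluorescent anti-GST bound to GST-tagged yeast transcription factors. These were applied at about 100-200 nM to universal all-10-mer Agilent arrays double-stranded by primer extension.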

Row | Sequence | PBM E-score
1 | CCAGGGTA | -0.117
2 | CACTAGCG | 0.0044
3 | ATTCTCGG | 0.0797
4 | CTTTGGAC | 0.109
5 | CAAGCCTA | 0.0806
6 | AGCTTTCG | -0.122
7 | CAAGGTCC | -0.123
8 | TCCCGAGA | -0.0956
9 | GCACAAGA | 0.0781
10 | GTCACCAC | -0.0683
11 | ACCAACGA | 0.152
12 | CCGCATGA | 0.00982
13 | CCCCGTCC | -0.319
14 | AAGCCGCG | 0.182
15 | CAGCCAGG | 0.0503
16 | ACGCCATA | 0.101
17 | CCTCTAGC | -0.269
18 | CATGACAA | 0.165
19 | GAGAATAC | 0.0981
20 | CTAGGCCA | -0.163
21 | TCTTGAAA | 0.187
22 | CTTTGTAC | 0.0743
23 | ATACCCAT | 0.00593
24 | AACACGTG | 0.217
25 | GGTCTTAA | -0.144

Row | Sequence | PBM E-score
26 | ACTGCCAG | -0.0252
27 | TGACTTAA | 0.0533
28 | ACACAAGC | 0.0103
29 | CATCCTAA | 0.0267
30 | CGAATCCC | 0.0511
31 | ACACTACT | 0.108
32 | AAATTCAA | -0.0271
33 | CTGAGGAA | -0.165
34 | GGTCTTGA | -0.00848
35 | CTGCTATC | 0.13
36 | AGGGTTAA | -0.174
37 | AAAGCCAG | 0.0283
38 | AATTCGGG | 0.0637
39 | ACAACCCG | -0.0537
40 | GGCCGCTA | -0.0531
41 | AAAACGCA | 0.0109
42 | ACAGAATG | 0.0502
43 | ACATTTGC | 0.0359
44 | AGCAAGTA | -0.0572
45 | ACCTGATG | -0.134
46 | ATAGTATC | 0.119
47 | AATGGACC | 0.216
48 | CCGGTATC | -0.147
49 | AACGCAGG | -0.194
50 | CGTTGGAC | -0.137

46 entries from above in a different format:
Row	Sequence	PBM E-score
4	CTTTGGAC	0.109
5	CAAGCCTA	0.0806
6	AGCTTTCG	-0.122
7	CAAGGTCC	-0.123
8	TCCCGAGA	-0.0956
9	GCACAAGA	0.0781
10	GTCACCAC	-0.0683
11	ACCAACGA	0.152
12	CCGCATGA	0.00982
13	CCCCGTCC	-0.319
14	AAGCCGCG	0.182
15	CAGCCAGG	0.0503
16	ACGCCATA	0.101
17	CCTCTAGC	-0.269
18	CATGACAA	0.165
19	GAGAATAC	0.0981
20	CTAGGCCA	-0.163
21	TCTTGAAA	0.187
22	CTTTGTAC	0.0743
23	ATACCCAT	0.00593
24	AACACGTG	0.217
25	GGTCTTAA	-0.144
26	ACTGCCAG	-0.0252
27	TGACTTAA	0.0533
28	ACACAAGC	0.0103
29	CATCCTAA	0.0267
30	CGAATCCC	0.0511
31	ACACTACT	0.108
32	AAATTCAA	-0.0271
33	CTGAGGAA	-0.165
34	GGTCTTGA	-0.00848
35	CTGCTATC	0.13
36	AGGGTTAA	-0.174
37	AAAGCCAG	0.0283
38	AATTCGGG	0.0637
39	ACAACCCG	-0.0537
40	GGCCGCTA	-0.0531
41	AAAACGCA	0.0109
42	ACAGAATG	0.0502
43	ACATTTGC	0.0359
44	AGCAAGTA	-0.0572
45	ACCTGATG	-0.134
46	ATAGTATC	0.119
47	AATGGACC	0.216
48	CCGGTATC	-0.147
49	AACGCAGG	-0.194

(listing goes on)

Row | Sequence | PBM E-score
51 | AAAGAAGA | -0.205
52 | ACGGTGGC | -0.0654
53 | ACGATGAA | 0.0286
54 | CAAATGGC | -0.054
55 | ACCCGGTG | -0.123
56 | ATTGTCCC | -0.0923
57 | GATAACCC | 0.0135
58 | CGACGAAA | 0.105
59 | CGGTCTGC | -0.0877
60 | AATTCCAT | 0.0643
61 | GACTTGGA | -0.045
62 | AGATGCGG | -0.00438
63 | GGCCAAAA | 0.0248
64 | CATAACAC | 0.0209
65 | CACCATAG | -0.173
66 | CCAACCTA | 0.00527
67 | CAGCTGCG | -0.0342
68 | CATGCAAA | 0.103
69 | CATCTCAG | 0.0222
70 | ACGACACC | -0.0498
71 | AGCACTCA | -0.1
72 | CATCATCA | -0.0576
73 | GACATTTA | -0.0115
74 | AAGGGCGG | -0.0106
75 | CGTACACG | 0.0454

Taken from the results shown for reference:
Row | Sequence | PBM E-score
73 | GACATTTA | -0.0115
74 | AAGGGCGG | -0.0106

More records:

Row | Sequence | PBM E-score
76 | ACCGTAGA | 0.0783
77 | ACGCGGAA | 0.125
78 | AACCACCG | -0.104
79 | CTATCGAA | -0.107
80 | GTACTTCA | 0.251
81 | ACGCTCCG | -0.145
82 | GATCTTAA | 0.073
83 | AGGCTTCG | -0.219
84 | GCACGCGC | 0.0412
85 | ACGAGATC | 0.0341
86 | AGACTGAC | -0.0725
87 | CTTGCCTA | -0.0629
88 | ACTGGGCT | -0.115
89 | AGTAATTG | 0.0751
90 | GTTAAGGA | 0.0277
91 | CACCGGCA | 0.123
92 | CTGCGTCA | -0.0938
93 | AGTTCGTC | 0.121
94 | ATTGCCTA | -0.0501
95 | CGCGTCCC | -0.0487
96 | ATGTATAG | 0.102
97 | CGAGGCGA | 0.0962
98 | AGCCCTCC | -0.205
99 | AATACACG | -0.00975
100 | AGGCGGAC | -0.118

Row | Sequence | PBM E-score
101 | AGTTACGA | 0.138
102 | CGACATGC | 0.0522
103 | AACTTTAG | -0.057
104 | CTCTCTTC | -0.215
105 | AAGCTCAA | -0.141
106 | GCTGAAGC | 0.0577
107 | GATATTAA | 0.187
108 | AGCGAGCG | 0.0867
109 | GATCTTAC | -0.0736
110 | CTTCAAGA | 0.0733
111 | GACACGTC | -0.0379
112 | ACTACACC | -0.0116
113 | AGGTCTCC | -0.11
114 | CAATAGAA | -0.2
115 | CTCTCTAA | -0.172
116 | ATCTCCTA | -0.0615
117 | CTGAGCCC | -0.161
118 | GTGGCAAA | -0.161
119 | ATGGGGGG | -0.353
120 | ACGTGCAC | 0.0563
121 | GCCTGAGC | -0.0696
122 | ACTACGGG | -0.0843
123 | AGGAACGC | 0.155
124 | GAGCATTA | 0.0112
125 | CTTTCGGA | 0.0275

Row | Sequence | PBM E-score
126 | ATCCCAAT | -0.122
127 | AGAGCGCA | -0.22
128 | AACTCGAC | 0.164
129 | AGTGCCTA | -0.123
130 | ACTGCGAG | -0.0795
131 | AATTTGGG | 0.0286
132 | AAGAGGGT | -0.182
133 | AGTCAATC | -0.105
134 | CGGGACGC | -0.221
135 | AAGAGCTC | -0.225
136 | CTAGCATC | -0.107
137 | ACAACTGT | 0.0361
138 | AAGTGCAG | -0.21
139 | CACCTAGG | -0.146
140 | ACCCGATC | -0.137
141 | CTAGAAAG | 0.013
142 | AGATACCT | -0.128
143 | GCGGTGTA | 0.0726
144 | AAAGACGG | -0.0712
145 | AACGTGTA | 0.109
146 | GGGCAATA | -0.00079
147 | ATATCAGC | 0.00753
148 | CGACTTTA | 0.102
149 | TGAATGAA | 0.0419
150 | CAGTGCGG | -0.0146

Row | Sequence | PBM E-score
151 | CTTTCTAC | 0.0489
152 | CACTCAAA | 0.0452
153 | CGGGCAGA | 0.0491
154 | AGAAGACG | 0.171
155 | GAACAACA | -0.043
156 | ATTACATA | 0.296
157 | AGATTACT | 0.184
158 | CTAAACTC | -0.0151
159 | TCATTACA | 0.23
160 | CCGCTTGC | -0.11
161 | CGCCTTCA | -0.129
162 | AACTGGAA | 0.129
163 | GAGGAACC | -0.0742
164 | AGTGTGTG | 0.136
165 | CATCAATC | -0.0692
166 | CTTGTGAC | -0.0156
167 | CCATACCA | 0.0874
168 | ATGGACCG | 0.00255
169 | CATGGTTC | 0.024
170 | ATTGAGGC | 0.0231
171 | AATATGGA | 0.0714
172 | ATACAGCC | 0.0178
